Here are results for 2 substances from patent US20250034212A1 (PEPTIDREAM INC., priority 2021, published 2025).

This data set in a line: general procedure: Fmoc solid-phase peptide synthesis; Fmoc-Sieber amide resin (0.47 mmol/g); HA-tag resin (0.65 mmol/g). To be noted: UV 225 nm.

Regarding “F-Nal1-V-V-N-V-4Py-D-D-PeG-V-Nal1-Y-H-KCOpipzaa-C-G K(MePEG8c)”, the “final purity (method not given)” value (conjugation step) was found to be 98.2%. “F-Nal1-V-V-N-V-Y-D-D-PeG-V-Nal1-Y-H-V-C-G”: for the setting “whole synthesis”, the “final purity (method not given)” value was 96.0%.
